From the supplement of paper PMC12819154, “High-throughput peptide-centric local stability assay extends protein–ligand identification to membrane proteins, tissues and bacteria” (Nature Structural & Molecular Biology, 2025) come the findings set out here.

Protein sequences, listed by entry. Tags and fused reporters are not part of them. Lines headed by an entry give the natural chain unless they say otherwise; changes in a name come on top.
UniProt P43366: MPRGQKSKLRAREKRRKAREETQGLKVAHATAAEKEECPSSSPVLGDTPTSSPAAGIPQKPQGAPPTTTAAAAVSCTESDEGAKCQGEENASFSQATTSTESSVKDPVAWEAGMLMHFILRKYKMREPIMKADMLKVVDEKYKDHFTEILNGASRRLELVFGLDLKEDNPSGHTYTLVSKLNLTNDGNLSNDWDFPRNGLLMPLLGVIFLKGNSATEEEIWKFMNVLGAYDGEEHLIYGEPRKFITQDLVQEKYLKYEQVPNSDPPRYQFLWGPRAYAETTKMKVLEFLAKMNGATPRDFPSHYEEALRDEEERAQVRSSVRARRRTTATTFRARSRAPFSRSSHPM
UniProt P41223: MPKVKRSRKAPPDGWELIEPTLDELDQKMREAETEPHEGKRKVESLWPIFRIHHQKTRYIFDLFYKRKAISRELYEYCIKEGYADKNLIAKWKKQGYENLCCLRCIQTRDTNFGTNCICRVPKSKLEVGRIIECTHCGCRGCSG
UniProt P35712: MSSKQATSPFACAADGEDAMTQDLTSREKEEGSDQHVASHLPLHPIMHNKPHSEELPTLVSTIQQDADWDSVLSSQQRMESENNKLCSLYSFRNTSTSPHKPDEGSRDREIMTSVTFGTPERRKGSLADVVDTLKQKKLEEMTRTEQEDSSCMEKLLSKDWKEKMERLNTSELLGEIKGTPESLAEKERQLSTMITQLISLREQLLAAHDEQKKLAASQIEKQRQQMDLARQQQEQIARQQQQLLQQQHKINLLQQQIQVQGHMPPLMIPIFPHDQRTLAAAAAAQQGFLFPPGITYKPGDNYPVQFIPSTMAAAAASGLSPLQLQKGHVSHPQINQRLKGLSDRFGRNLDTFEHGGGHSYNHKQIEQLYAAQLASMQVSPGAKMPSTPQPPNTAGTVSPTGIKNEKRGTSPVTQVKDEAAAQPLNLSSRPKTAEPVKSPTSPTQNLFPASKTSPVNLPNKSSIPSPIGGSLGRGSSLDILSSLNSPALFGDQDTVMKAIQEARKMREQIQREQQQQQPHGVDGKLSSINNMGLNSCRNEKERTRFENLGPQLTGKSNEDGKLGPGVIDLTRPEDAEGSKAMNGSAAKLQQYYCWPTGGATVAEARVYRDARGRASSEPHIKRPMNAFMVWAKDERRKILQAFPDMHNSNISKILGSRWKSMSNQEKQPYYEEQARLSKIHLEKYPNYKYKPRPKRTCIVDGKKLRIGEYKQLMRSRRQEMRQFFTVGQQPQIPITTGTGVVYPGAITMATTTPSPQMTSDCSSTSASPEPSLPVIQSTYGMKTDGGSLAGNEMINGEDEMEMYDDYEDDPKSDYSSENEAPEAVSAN
UniProt P30039: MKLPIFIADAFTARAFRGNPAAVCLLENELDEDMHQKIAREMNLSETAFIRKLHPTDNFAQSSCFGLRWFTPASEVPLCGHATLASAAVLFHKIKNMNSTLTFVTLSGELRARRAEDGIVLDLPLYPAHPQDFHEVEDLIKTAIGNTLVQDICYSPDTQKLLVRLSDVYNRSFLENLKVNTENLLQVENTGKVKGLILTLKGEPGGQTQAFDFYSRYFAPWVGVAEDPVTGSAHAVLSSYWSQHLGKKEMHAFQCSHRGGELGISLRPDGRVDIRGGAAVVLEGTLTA
UniProt P36873, whole entry, looked up: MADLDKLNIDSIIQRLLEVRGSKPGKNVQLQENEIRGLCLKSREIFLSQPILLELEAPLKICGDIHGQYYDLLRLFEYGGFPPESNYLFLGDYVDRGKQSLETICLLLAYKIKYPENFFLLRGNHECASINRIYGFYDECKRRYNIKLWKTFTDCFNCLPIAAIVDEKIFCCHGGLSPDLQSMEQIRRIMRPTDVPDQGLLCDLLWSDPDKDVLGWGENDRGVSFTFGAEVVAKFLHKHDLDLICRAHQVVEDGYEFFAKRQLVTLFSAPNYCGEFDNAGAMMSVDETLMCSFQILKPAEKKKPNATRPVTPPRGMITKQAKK
UniProt P35998: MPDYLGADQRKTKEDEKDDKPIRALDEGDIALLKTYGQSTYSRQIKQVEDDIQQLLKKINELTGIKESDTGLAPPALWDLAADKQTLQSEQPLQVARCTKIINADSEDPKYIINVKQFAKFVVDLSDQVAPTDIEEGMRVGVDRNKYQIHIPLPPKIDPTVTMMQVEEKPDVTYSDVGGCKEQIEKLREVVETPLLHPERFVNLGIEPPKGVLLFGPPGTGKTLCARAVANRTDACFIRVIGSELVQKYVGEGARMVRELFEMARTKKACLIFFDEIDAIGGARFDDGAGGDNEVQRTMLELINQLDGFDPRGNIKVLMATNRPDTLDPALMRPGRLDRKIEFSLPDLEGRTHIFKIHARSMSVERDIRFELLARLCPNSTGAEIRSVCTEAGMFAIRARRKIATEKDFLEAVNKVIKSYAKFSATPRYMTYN
UniProt P40938, whole entry: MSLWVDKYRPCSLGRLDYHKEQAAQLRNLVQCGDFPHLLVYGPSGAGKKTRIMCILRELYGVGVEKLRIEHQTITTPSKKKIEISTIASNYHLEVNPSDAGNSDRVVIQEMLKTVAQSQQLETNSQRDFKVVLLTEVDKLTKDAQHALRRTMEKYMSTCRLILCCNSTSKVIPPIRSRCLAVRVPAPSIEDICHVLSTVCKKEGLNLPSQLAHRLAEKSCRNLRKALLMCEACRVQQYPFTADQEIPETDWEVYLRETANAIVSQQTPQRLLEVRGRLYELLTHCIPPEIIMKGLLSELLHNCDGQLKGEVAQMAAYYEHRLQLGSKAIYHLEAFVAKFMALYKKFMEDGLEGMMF
UniProt P42025, whole entry: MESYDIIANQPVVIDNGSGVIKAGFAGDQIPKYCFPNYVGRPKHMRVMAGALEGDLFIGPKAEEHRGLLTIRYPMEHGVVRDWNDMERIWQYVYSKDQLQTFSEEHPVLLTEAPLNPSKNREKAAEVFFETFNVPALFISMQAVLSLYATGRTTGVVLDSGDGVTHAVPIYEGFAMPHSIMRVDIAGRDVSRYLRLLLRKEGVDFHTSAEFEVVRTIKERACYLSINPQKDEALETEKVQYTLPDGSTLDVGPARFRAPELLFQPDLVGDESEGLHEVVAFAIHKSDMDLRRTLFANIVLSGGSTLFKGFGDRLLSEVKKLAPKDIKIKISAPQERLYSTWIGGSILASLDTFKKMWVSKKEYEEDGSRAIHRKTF
UniProt P32519: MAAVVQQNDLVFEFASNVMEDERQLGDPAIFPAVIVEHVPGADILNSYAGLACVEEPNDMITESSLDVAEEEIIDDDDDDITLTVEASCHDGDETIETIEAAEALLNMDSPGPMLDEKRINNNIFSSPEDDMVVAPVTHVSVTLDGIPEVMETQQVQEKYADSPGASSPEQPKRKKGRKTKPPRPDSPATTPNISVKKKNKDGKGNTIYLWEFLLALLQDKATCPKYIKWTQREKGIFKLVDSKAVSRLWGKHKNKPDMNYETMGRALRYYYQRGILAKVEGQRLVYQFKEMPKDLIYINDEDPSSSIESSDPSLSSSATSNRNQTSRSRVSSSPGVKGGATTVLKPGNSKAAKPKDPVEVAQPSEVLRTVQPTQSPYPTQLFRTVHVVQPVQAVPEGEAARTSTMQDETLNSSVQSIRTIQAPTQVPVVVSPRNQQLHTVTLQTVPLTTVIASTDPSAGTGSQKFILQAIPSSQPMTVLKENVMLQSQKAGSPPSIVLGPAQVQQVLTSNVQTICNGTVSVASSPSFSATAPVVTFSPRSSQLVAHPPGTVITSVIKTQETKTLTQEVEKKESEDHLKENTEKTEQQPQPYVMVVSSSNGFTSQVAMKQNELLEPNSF
UniProt P32456: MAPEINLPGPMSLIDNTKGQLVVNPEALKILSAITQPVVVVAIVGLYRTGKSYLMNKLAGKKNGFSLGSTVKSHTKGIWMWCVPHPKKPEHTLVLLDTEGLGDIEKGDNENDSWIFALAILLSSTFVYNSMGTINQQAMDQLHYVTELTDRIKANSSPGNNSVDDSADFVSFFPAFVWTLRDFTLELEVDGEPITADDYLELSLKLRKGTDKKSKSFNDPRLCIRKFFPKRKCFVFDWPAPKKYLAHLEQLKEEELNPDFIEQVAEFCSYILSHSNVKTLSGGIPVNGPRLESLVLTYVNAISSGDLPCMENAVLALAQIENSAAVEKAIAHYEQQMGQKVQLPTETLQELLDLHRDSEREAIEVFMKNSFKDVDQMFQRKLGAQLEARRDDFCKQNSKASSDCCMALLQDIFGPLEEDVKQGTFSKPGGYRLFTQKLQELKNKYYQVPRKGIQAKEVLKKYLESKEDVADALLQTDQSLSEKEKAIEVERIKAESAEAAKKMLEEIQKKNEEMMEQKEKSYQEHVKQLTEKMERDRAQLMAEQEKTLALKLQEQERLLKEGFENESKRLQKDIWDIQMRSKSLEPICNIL
UniProt P42768: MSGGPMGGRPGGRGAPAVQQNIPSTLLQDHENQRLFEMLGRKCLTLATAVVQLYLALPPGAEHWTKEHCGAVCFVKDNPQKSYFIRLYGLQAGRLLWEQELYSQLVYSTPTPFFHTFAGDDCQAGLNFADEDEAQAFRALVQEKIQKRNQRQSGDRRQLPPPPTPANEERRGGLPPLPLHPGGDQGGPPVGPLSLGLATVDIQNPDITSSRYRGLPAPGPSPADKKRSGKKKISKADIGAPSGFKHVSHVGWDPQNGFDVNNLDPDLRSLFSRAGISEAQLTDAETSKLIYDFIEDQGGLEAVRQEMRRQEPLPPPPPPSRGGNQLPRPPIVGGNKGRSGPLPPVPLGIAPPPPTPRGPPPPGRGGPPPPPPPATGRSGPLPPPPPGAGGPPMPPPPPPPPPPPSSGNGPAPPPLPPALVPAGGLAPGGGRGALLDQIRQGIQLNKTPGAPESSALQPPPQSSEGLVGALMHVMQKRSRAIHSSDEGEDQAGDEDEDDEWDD
UniProt P30047: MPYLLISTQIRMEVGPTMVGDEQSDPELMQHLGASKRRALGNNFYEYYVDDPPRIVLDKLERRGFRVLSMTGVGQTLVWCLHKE
UniProt P31949: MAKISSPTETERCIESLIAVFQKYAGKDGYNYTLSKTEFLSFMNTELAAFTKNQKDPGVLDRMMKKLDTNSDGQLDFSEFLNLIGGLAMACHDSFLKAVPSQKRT
UniProt P35573: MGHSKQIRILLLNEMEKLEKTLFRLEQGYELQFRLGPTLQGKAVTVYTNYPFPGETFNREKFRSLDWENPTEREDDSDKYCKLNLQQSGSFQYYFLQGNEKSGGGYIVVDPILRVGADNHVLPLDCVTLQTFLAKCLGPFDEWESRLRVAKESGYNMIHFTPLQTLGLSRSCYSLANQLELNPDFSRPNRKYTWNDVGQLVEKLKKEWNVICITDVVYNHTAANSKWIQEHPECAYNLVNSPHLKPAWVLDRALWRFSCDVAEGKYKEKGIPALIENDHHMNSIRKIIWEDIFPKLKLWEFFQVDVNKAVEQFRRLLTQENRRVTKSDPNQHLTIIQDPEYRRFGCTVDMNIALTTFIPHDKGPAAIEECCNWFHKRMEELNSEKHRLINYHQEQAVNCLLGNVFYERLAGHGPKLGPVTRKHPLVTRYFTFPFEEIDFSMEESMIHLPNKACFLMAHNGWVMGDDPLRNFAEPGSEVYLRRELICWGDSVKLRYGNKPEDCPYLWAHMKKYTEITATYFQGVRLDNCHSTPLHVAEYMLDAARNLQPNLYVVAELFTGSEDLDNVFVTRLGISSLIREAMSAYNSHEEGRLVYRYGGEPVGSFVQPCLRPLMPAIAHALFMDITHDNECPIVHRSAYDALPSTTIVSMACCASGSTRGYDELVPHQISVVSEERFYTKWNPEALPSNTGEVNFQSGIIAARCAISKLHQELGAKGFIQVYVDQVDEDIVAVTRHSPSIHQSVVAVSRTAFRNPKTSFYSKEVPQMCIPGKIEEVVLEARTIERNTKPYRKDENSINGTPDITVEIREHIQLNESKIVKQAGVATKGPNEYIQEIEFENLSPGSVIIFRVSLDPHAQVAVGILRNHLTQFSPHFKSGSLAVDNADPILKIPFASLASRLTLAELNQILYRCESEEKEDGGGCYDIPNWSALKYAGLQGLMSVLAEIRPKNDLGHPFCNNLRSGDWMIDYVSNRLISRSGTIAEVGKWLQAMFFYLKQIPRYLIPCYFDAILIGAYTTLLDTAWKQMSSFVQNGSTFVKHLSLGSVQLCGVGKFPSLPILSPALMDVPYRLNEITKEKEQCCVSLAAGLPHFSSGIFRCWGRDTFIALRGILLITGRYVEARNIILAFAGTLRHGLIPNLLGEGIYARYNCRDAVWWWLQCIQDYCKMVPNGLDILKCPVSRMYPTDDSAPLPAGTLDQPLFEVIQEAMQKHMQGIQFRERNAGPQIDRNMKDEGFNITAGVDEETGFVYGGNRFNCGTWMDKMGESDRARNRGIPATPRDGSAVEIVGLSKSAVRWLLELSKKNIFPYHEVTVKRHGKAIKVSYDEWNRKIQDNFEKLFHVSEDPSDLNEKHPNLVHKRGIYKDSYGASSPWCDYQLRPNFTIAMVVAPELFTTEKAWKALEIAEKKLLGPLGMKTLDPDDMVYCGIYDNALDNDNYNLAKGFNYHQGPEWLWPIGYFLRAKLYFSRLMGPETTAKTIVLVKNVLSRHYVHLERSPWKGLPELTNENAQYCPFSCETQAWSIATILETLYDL

This is one part of the list. Most entries show no effect beyond the scatter of the controls.

Compound in this test: CN[C@@H]1C[C@H]2O[C@@](C)([C@@H]1OC)n1c3ccccc3c3c4c(c5c6ccccc6n2c5c31)C(=O)NC4 [staurosporine]
Nature of the test: log2 fold change of tryptic peptide abundance, ligand vs vehicle (limited proteolysis) (log2 ratio); higher = more trypsin-susceptible (destabilized). Particulars: ligand concentration: 20 uM; sample: K562 cleared lysate; digestion: 4 min, 22 C (HT-PELSA RT4min, Orbitrap Astral).
For “MAGEB1 (peptide sequence: MKVLEFLAK, peptide start residue: 286) (UniProt P43366)”, the log2 fold change was -0.361.

“UniProt P41223 (peptide sequence: QGYENLCCLRCIQTR, peptide start residue: 95)”: the log2 fold change is -0.214.

In the case of “ADD2 (peptide sequence: SRSPSTESQLMSK, peptide start residue: 528) (UniProt P35612)”, the log2 fold change was -0.51.

With “SOX6 (peptide sequence: SSIPSPIGGSLGR, peptide start residue: 462) (UniProt P35712)”, the log2 fold change came to 0.2.

With “BMI1 (peptide sequence: CPAAMTVMHLR, peptide start residue: 166) (UniProt P35226)”, the log2 fold change is -0.186.

For “PBLD (peptide sequence: MKLPIFIADAFTAR, peptide start residue: 1) (UniProt P30039)”, the log2 fold change turned out to be 0.626.

“UniProt P36954 (peptide sequence: FCQECNNMLYPKEDKENR, peptide start residue: 16)”: the log2 fold change is 0.339.

Regarding “CDC27 (peptide sequence: ASVLFANEKYK, peptide start residue: 710) (UniProt P30260)”, the log2 fold change was determined as 0.723.

For “PPP1CC (peptide sequence: NVQLQENEIR, peptide start residue: 27) (UniProt P36873)”, the log2 fold change worked out at 0.584.

Turning to “TMPO (peptide sequence: NRPPLPAGTNSK, peptide start residue: 49) (UniProt P42166)”, the log2 fold change is 0.268.

As for “PHB (peptide sequence: VLPSITTEILK, peptide start residue: 118) (UniProt P35232)”, the log2 fold change is -0.128.

Take “PSMC2 (peptide sequence: IATEKDFLEAVNK, peptide start residue: 403) (UniProt P35998)”: the log2 fold change worked out at 0.312.

Consider “STAT3 (peptide sequence: LLQTAATAAQQGGQANHPTAAVVTEK, peptide start residue: 115) (UniProt P40763)”, for which the log2 fold change worked out at 0.375.

In the case of “RFC3 (peptide sequence: ELYGVGVEK, peptide start residue: 58) (UniProt P40938)”, the log2 fold change is 0.381.

Take “ACTR1B (peptide sequence: RTLFANIVLSGGSTLFK, peptide start residue: 292) (UniProt P42025)”: the log2 fold change was -0.531.

Take “ELF1 (peptide sequence: TLTQEVEK, peptide start residue: 564) (UniProt P32519)”: the log2 fold change was -0.698.

Regarding “GBP2 (peptide sequence: DIWDIQMR, peptide start residue: 573) (UniProt P32456)”, the log2 fold change is -0.0492.

Turning to “WAS (peptide sequence: ADIGAPSGFK, peptide start residue: 236) (UniProt P42768)”, the log2 fold change amounted to 0.167.

For the target “NOS3 (peptide sequence: PGDPVPCFIR, peptide start residue: 985) (UniProt P29474)”, the log2 fold change was 0.392.

Regarding “UniProt P29536 (peptide sequence: KEGEKMK, peptide start residue: 234)”, the log2 fold change worked out at 0.221.

Turning to “GCHFR (peptide sequence: IVLDKLER, peptide start residue: 55) (UniProt P30047)”, the log2 fold change stood at 0.375.

For the target “RFC2 (peptide sequence: YRPVKLNEIVGNEDTVSR, peptide start residue: 42) (UniProt P35250)”, the log2 fold change was -0.35.

Regarding “S100A11 (peptide sequence: DGYNYTLSK, peptide start residue: 28) (UniProt P31949)”, the log2 fold change was -0.0594.

“COIL (peptide sequence: QQQLNDVVK, peptide start residue: 436) (UniProt P38432)”: the log2 fold change is -0.195.

“ETV5 (peptide sequence: LYFDDTCVVPERLEGK, peptide start residue: 333) (UniProt P41161)”: the log2 fold change was -0.171.

With “GTF2E2 (peptide sequence: SVTVDSMDEEKIEEYLKR, peptide start residue: 222) (UniProt P29084)”, the log2 fold change came out at 0.172.

Consider “AGL (peptide sequence: HSPSIHQSVVAVSR, peptide start residue: 735) (UniProt P35573)”, for which the log2 fold change was -0.369.

With “KDM5A (peptide sequence: NLLDDVEEFHER, peptide start residue: 848) (UniProt P29375)”, the log2 fold change was determined as 0.326.
